Experimental data from PubChem BioAssay AID540275 (National Center for Advancing Translational Sciences (NCATS), 2011).
About 620 (0.19%) of roughly 320,000 compounds were called active. Inconclusive results, whose numbers are uncertain, are shown with a selection of clear calls. Cut-off read from the data, not from the text of the source: active = activation above about 80%; inconclusive = between about 30% and that limit; inactive = weaker than that.

Sequences of proteins named here, by UniProt entry; tags and fusion partners are left off.
UniProt Q8NER1, whole entry, looked up: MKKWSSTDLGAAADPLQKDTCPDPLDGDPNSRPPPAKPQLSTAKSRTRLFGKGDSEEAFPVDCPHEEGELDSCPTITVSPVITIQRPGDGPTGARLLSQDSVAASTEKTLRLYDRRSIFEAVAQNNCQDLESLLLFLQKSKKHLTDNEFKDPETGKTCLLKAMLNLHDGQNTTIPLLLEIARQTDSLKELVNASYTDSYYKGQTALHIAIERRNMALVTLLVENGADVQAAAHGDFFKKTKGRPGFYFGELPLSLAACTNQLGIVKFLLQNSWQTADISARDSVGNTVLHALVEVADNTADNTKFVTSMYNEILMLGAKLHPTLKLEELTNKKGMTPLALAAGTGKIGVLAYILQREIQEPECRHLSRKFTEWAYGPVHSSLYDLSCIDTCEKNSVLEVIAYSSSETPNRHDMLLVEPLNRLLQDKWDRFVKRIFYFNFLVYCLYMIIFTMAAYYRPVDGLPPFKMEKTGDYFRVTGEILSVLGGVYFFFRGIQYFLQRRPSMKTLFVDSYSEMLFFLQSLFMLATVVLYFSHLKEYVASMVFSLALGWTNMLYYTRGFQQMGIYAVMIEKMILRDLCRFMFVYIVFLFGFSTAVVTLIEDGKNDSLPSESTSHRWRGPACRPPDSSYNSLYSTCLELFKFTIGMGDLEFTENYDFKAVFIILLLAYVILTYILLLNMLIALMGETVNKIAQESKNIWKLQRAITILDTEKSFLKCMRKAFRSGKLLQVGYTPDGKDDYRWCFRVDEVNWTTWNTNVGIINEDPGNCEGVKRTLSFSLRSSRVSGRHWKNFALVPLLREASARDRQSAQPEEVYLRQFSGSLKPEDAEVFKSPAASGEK

Biological target: Transient receptor potential cation channel subfamily V member 1 (Homo sapiens) (UniProt Q8NER1)
Assay: HTS Assay for Compounds that Act as Agonists of the Vanilloid Receptor 1; note: 0% is about no effect
Conditions: TRPV1-expressing cells, Fluo-8 calcium influx, agonist mode; at 8.33 µM, active compounds read high
How it was run: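 Cells expressing TRPV1 were dye-loaded with Fluo-8 and read kinetically: 10 s baseline, 3 min after compound (agonist portion), then 2 min after EC20 capsaicin (allosteric enhancer portion). Calcium-bound dye fluorescence at 480/520 nm.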

Row | Structure (SMILES) | activation
1 | O=C1CCCc2cc3c(cc21)CC1(C3)Cc2cc3c(cc2C1)C(=O)CCC3 | inactive: 1.83%
2 | O=C(COC(=O)C1CCN(c2ccc(C(F)(F)F)cn2)CC1)c1ccc(Cl)cc1 | inactive: 2.19%
3 | CCSc1ccc(NC(=O)c2cccnc2)cc1 | inconclusive: 56.4%
4 | Cc1cc2nc3c(=O)n(C4CCCCC4)c(=O)[nH]c3nc2cc1N | inconclusive: 46.7%
5 | NC(=O)COC(=O)c1ccccc1Nc1ccc(SC(F)F)cc1 | inconclusive: 30%
6 | Cc1ccc(-c2cc(C(=O)NCc3cccnc3)no2)cc1 | inconclusive: 47.5%
7 | Cc1cccc(-c2ccc3ncnc(NCc4cccnc4)c3c2)c1 | inconclusive: 55.2%
8 | COC(=O)CSC1=NS(=O)(=O)c2ccccc21 | inactive: -0.642%
9 | COc1ccc(NC(=O)c2cc3c(s2)CCC(C)C3)cc1S(=O)(=O)N1CCOCC1 (stereo not drawn) | inconclusive: 41.6%
10 | COc1cc(NC(=O)c2n[nH]c(=O)c3ccccc23)cc(OC)c1 | inactive: 1.44%
11 | O=C(N/N=C/c1ccncc1)c1cc(-c2ccc(Br)s2)[nH]n1 | inconclusive: 36.7%
12 | O=C(CCNc1cccc(C(F)(F)F)c1)c1ccco1 | inconclusive: 49.4%
13 | COc1ccc(/C=C/C(=O)Nc2c(C)nn(C)c2C)cc1COc1ccc(Br)cc1 | inconclusive: 65.3%
14 | NNC(=O)c1cccc(COc2ccc3c(c2)CCC3)c1 | inconclusive: 48.8%
15 | COC(CNC(=O)Cn1nc(Cc2ccncc2)c2ccccc2c1=O)OC | inactive: -0.652%
16 | CCOc1ccccc1CN1CCN(Cc2c[nH]c3ccccc23)CC1CCO (stereo not drawn) | inactive: 8.2%
17 | C=CCC1NS(=O)(=O)OC(COC)C1C (stereo not drawn) | inactive: 0.398%
18 | Cc1ccc2c(c1)CCCN2C(=O)Nc1ccc2c(c1)OCO2 | inconclusive: 42%
19 | COc1ccc(CN2CCC(Oc3cc(C(=O)NC4CC4)ccc3OC)CC2)c(O)c1 | inactive: -0.184%
20 | OC1(c2cccc(C(F)(F)F)c2)CCN(Cc2nc(-c3cnccn3)no2)CC1 | inactive: 4.09%

Row | Structure (SMILES) | activation
21 | Cc1c(C(=O)Nc2ccc3c(c2)OCO3)oc2ccccc12 | inconclusive: 63.2%
22 | COc1cccc(C(=O)C2CCCN(Cc3cn(CC(N)=O)c4ccccc34)C2)c1 (stereo not drawn) | inconclusive: 32.3%
23 | CC(C)COCC(O)CCC(=O)NNC(=S)Nc1ccccc1 (stereo not drawn) | inactive: 0.681%
24 | CC(C)(C)c1cccc(OCCCSc2ncccn2)c1 | inconclusive: 52.5%
25 | COc1cccc(NC(=S)N2CCc3cc(OC)c(OC)cc3C2)c1 | inconclusive: 51.5%
26 | O=C(Cc1ccccc1)Nc1sc2c(c1C(=O)Nc1ccc(Cl)cc1)CCCC2 | inconclusive: 38.2%
27 | O=C(CC12CC3CC(CC(Br)(C3)C1)C2)NC1CCCC1 | inconclusive: 32.1%
28 | CCOc1cc(NC(=O)C2CC2)c(OCC)cc1NC(=O)c1ccccc1OCC | inconclusive: 33.8%
29 | O=C(COc1ccccc1)N/N=C/c1ccc([N+](=O)[O-])o1 | inactive: -1.62%
30 | O=C(CNC1CCCCCC1)Nc1ccc(S(=O)(=O)NC2CC2)cc1 | inconclusive: 57.6%
31 | O=C(/C=C/Sc1ccccc1)c1ccccc1 | inconclusive: 32.1%
32 | COc1cccc(-n2ccnc2SCC(=O)Nc2ccccc2)c1 | inconclusive: 35.8%
33 | CCN(CC)c1ccc(NC(=O)COc2ccccc2C#N)cc1S(=O)(=O)Nc1ccc(OC)cc1 | inactive: 5.69%
34 | O=C(Oc1ccc(C(=S)N2CCCCC2)cc1)c1ccccc1 | inconclusive: 30.1%
35 | Cc1csc(NC(=O)CSc2ccc(-c3ccccc3)nn2)n1 | inconclusive: 55.4%
36 | Cc1ccc2sc(-c3ccc(NC(=O)CCN4C(=O)c5ccccc5C4=O)cc3)nc2c1 | inactive: -0.855%
37 | Fc1ccc(-c2nnc3sc(C4COc5ccccc5O4)nn23)cc1 (stereo not drawn) | inconclusive: 41.5%
38 | C=CCn1cccc(C(=O)Nc2ccc(C)c(Cl)c2)c1=O | inconclusive: 45%
39 | Fc1cccc(NC(=S)NC2CCCCCCC2)c1 | inconclusive: 53.8%
40 | COC(=O)C1C(=O)c2c([nH]c(C(=O)OC3CCCCCC3)c2C)CC1C (stereo not drawn) | inconclusive: 36.4%

Row | Structure (SMILES) | activation
41 | N=c1c2c(ncn1Cc1ccco1)Oc1ccc3ccccc3c1C2c1ccccc1 (stereo not drawn) | inconclusive: 36.2%
42 | CC(C)CN1CCC(=O)N([C@H](COc2ccccc2)c2ccccc2)CC1 | inconclusive: 30.2%
43 | O=C(N/N=C/C1CC2C=CC1C2)c1ccccc1O (stereo not drawn) | inconclusive: 54.3%
44 | CC(C)(C)c1ccc(C(=O)N2CCC(C(=O)c3ccccc3)CC2)cc1 | inconclusive: 46.6%
45 | CCc1ccc(C(=O)c2cnc3ccc(OC)cc3c2N2CCN(CC)CC2)cc1 | inconclusive: 38.1%
46 | CC1CN(c2nc3c(c(=O)n(Cc4ccc(Cl)c(Cl)c4)c(=O)n3C)n2C)CC(C)O1 (stereo not drawn) | inconclusive: 46.1%
47 | COc1ccc(NC(=S)Nc2ccc3snnc3c2)cc1 | inactive: -0.53%
48 | CCCCCCc1cc2cc(S(=O)(=O)c3ccc(Cl)cc3)c(=O)oc2cc1O | inconclusive: 30.6%
49 | O=C(c1ccco1)N1CCN(c2nc(-c3ccc(F)cc3)cs2)CC1 | inconclusive: 37.9%
50 | COc1ccc(CCNC(=O)c2cc3c(=O)n4ccccc4nc3n(C3CCCCC3)c2=N)cc1 | inactive: 2.91%
51 | O=C(CSc1nc2ccc([N+](=O)[O-])cc2[nH]1)NC1CCCCCC1 | inconclusive: 42.7%
52 | Cc1cc(NC(=O)/C=C/c2ccc(F)cc2)n(-c2nc3ccccc3[nH]2)n1 | inconclusive: 54.9%
53 | Fc1ccc(CNC(=S)NC2CCCCCC2)cc1 | inconclusive: 77.4%
54 | Cc1cnc(NC(=O)c2ccc(Cl)nc2)s1 | inactive: 1.7%
55 | CCCCc1ccccc1NC(=S)NC1CCCC1 | inconclusive: 44.8%
56 | CCN(CC)S(=O)(=O)c1cccc(S(=O)(=O)N2CCCCC2)c1 | inconclusive: 30%
57 | CCOC(=O)C1(Cc2cccc(F)c2)CCN(C(=O)C2CCOCC2)CC1 | inconclusive: 32.2%
58 | Cc1cccc(NC(=O)c2ccc(N3C(=O)C4C5C=CC(C6CC56)C4C3=O)cc2)c1 (stereo not drawn) | inconclusive: 36.2%

Grouped by structure: the compounds so far with two or more sulfur atoms.
Row | Structure (SMILES) | activation
8 | COC(=O)CSC1=NS(=O)(=O)c2ccccc21 | inactive: -0.642%
9 | COc1ccc(NC(=O)c2cc3c(s2)CCC(C)C3)cc1S(=O)(=O)N1CCOCC1 (stereo not drawn) | inconclusive: 41.6%
35 | Cc1csc(NC(=O)CSc2ccc(-c3ccccc3)nn2)n1 | inconclusive: 55.4%
47 | COc1ccc(NC(=S)Nc2ccc3snnc3c2)cc1 | inactive: -0.53%
56 | CCN(CC)S(=O)(=O)c1cccc(S(=O)(=O)N2CCCCC2)c1 | inconclusive: 30%
